Taken from: PubChem BioAssay AID1053208 (Peter MacCallum Cancer Centre, 2014)
This is a random part of about 17,000 reagents. 788 of all reagents (4.7%) count as active. 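Calls rest on z-score classes alone; an extra cut-off of viability at most 70% of control was not applied to them.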 Further read-outs or replicates are left out here. No sequences are given here.

Purpose: 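Find knock-downs that sensitise mouse osteosarcoma cells to doxorubicin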 (primary screen)
Cell system: mouse osteosarcoma cells, early-passage culture from an engineered mouse model of fibroblastic bone tumour
Knock-down reagent: siRNA pool against mouse genes, 40 nM
Time to read-out: about 120 h (48 h before drug, then 72 h with drug)
Conditions: doxorubicin 100 nM for 72 h, roughly 30-40% inhibitory dose
Read-out: 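Luminescent ATP signal taken as viability with or without 100 nM doxorubicin for 72 h; mean of two wells set against non-targeting siRNA and turned into robust z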
Scale: viability z-score with doxorubicin: higher = more viable cells under doxorubicin; viability z-score without drug: higher = more viable cells with knock-down alone
Call rule: 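a pool counts as active when its viability z-score with doxorubicin is -2 or below and its z-score without drug lies between -2 and 2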

| gene | combined z-score class | viability z-score with doxorubicin | viability z-score without drug | outcome |
| --- | --- | --- | --- | --- |
| Arf6 (ARF GTPase 6) | low cell count with doxorubicin only | -2.25 | -1.52 | active |
| Gtse1 (G two S phase expressed protein 1) | no change with or without drug | 0.22 | 0.17 | inactive |
| Cd46 (CD46 antigen, complement regulatory protein) | no change with or without drug | 0 | -1.35 | inactive |
| Eri2 (exoribonuclease 2) | no change with or without drug | 1.12 | 1.85 | inactive |
| Nrbp2 (nuclear receptor binding protein 2) | no change with or without drug | 0.22 | -1.52 | inactive |
| Eaf1 (ELL associated factor 1) | no change with or without drug | 0.22 | 1.18 | inactive |
| Prss48 (serine protease 48) | no change with or without drug | 0.22 | -0.34 | inactive |
| Rbm3 (RNA binding motif (RNP1, RRM) protein 3) | no change with or without drug | -0.9 | -1.18 | inactive |
| Adam3 (ADAM metallopeptidase domain 3) | no change with or without drug | -0.67 | 0 | inactive |
| Ltb4r2 (leukotriene B4 receptor 2) | high cell count without drug only | 0.22 | 2.02 | inactive |
| Tmed6 (transmembrane p24 trafficking protein 6) | high cell count without drug only | -0.22 | 3.54 | inactive |
| Coro1b (coronin, actin binding protein 1B) | no change with or without drug | -0.9 | -0.17 | inactive |
| Bpgm (2,3-bisphosphoglycerate mutase) | no change with or without drug | 0 | -0.51 | inactive |
| Adap1 (ArfGAP with dual PH domains 1) | no change with or without drug | -1.24 | -0.84 | inactive |
| Khdc3 (KH domain containing 3, subcortical maternal complex member) | no change with or without drug | 1.8 | 1.18 | inactive |
| Mocs1 (molybdenum cofactor synthesis 1) | no change with or without drug | 1.35 | 0.51 | inactive |
| Aoah (acyloxyacyl hydrolase) | no change with or without drug | 0.67 | -0.17 | inactive |
| Adam32 (a disintegrin and metallopeptidase domain 32) | high cell count with doxorubicin only | 2.25 | -0.17 | inactive |
| Cpne8 (copine VIII) | high cell count with doxorubicin only | 2.7 | 0.34 | inactive |
| Pdgfrl (platelet-derived growth factor receptor-like) | no change with or without drug | 0 | -0.67 | inactive |
| BC005537 (cDNA sequence BC005537) | no change with or without drug | -0.79 | -0.51 | inactive |
| Kcnj1 (potassium inwardly-rectifying channel, subfamily J, member 1) | no change with or without drug | 1.35 | 1.01 | inactive |
| Plcg2 (phospholipase C, gamma 2) | no change with or without drug | -0.34 | -1.01 | inactive |
| Rtn4rl2 (reticulon 4 receptor-like 2) | low cell count with doxorubicin only | -2.47 | -1.01 | active |
| Stx3 (syntaxin 3) | no change with or without drug | -0.11 | -0.51 | inactive |
| Ybx3 (Y box protein 3) | no change with or without drug | 0.22 | 1.18 | inactive |
| Morc1 (microrchidia 1) | low cell count with doxorubicin only | -2.02 | 0.17 | active |
| Cyp2c29 (cytochrome P450, family 2, subfamily c, polypeptide 29) | no change with or without drug | -0.67 | 0 | inactive |
| Rimkla (ribosomal modification protein rimK-like family member A) | no change with or without drug | 0.11 | 0.51 | inactive |
| Mchr1 (melanin-concentrating hormone receptor 1) | no change with or without drug | -0.56 | -0.17 | inactive |
| Exoc3l (exocyst complex component 3-like) | low cell count with doxorubicin only | -2.7 | -0.17 | active |
| 4931429L15Rik (RIKEN cDNA 4931429L15 gene) | no change with or without drug | 1.24 | -0.17 | inactive |
| Rwdd2a (RWD domain containing 2A) | no change with or without drug | -0.22 | -0.84 | inactive |
| Ankrd46 (ankyrin repeat domain 46) | no change with or without drug | -0.22 | 0.34 | inactive |
| Ferry3 (FERRY endosomal RAB5 effector complex subunit 3) | no change with or without drug | -0.79 | 0.17 | inactive |
| Rtel1 (regulator of telomere elongation helicase 1) | no change with or without drug | -0.45 | 0.51 | inactive |
| Fars2 (phenylalanine-tRNA synthetase 2, mitochondrial) | no change with or without drug | -0.67 | -0.67 | inactive |
| Psma1 (proteasome subunit alpha 1) | low cell count with doxorubicin only | -2.25 | -0.51 | active |
| Tmem106c (transmembrane protein 106C) | no change with or without drug | 1.12 | -0.84 | inactive |
| Npffr1 (neuropeptide FF receptor 1) | no change with or without drug | 0.11 | 0.51 | inactive |
| Epas1 (endothelial PAS domain protein 1) | no change with or without drug | -0.11 | 0.34 | inactive |
| Dmgdh (dimethylglycine dehydrogenase precursor) | no change with or without drug | 1.12 | 0.34 | inactive |
| Or5b112 (olfactory receptor family 5 subfamily B member 112) | low cell count with doxorubicin only | -2.14 | -1.01 | active |
| Sirt3 (sirtuin 3) | no change with or without drug | 0.34 | 0.17 | inactive |
| Glt8d1 (glycosyltransferase 8 domain containing 1) | no change with or without drug | -0.45 | 1.18 | inactive |
| Limk2 (LIM domain kinase 2) | no change with or without drug | 1.8 | 0.34 | inactive |
| Tslp (thymic stromal lymphopoietin) | no change with or without drug | -1.35 | -1.35 | inactive |
| Or4p23 (olfactory receptor family 4 subfamily P member 23) | no change with or without drug | 1.01 | 0.51 | inactive |
| Qrfp (pyroglutamylated RFamide peptide) | no change with or without drug | -0.9 | -0.17 | inactive |
| Rptn (repetin) | no change with or without drug | 1.8 | 0.34 | inactive |

7 of these entries, reformatted:
gene | combined z-score class | viability z-score with doxorubicin | viability z-score without drug | outcome
Cd46 (CD46 antigen, complement regulatory protein) | no change with or without drug | 0 | -1.35 | inactive
Eri2 (exoribonuclease 2) | no change with or without drug | 1.12 | 1.85 | inactive
Nrbp2 (nuclear receptor binding protein 2) | no change with or without drug | 0.22 | -1.52 | inactive
Eaf1 (ELL associated factor 1) | no change with or without drug | 0.22 | 1.18 | inactive
Prss48 (serine protease 48) | no change with or without drug | 0.22 | -0.34 | inactive
Rbm3 (RNA binding motif (RNP1, RRM) protein 3) | no change with or without drug | -0.9 | -1.18 | inactive
Adam3 (ADAM metallopeptidase domain 3) | no change with or without drug | -0.67 | 0 | inactive
